Only results without a clear call are listed here; the source files them as inconclusive. Unless noted, no cut-off is given here; in the data, nearly all actives have AC50 up to about 37 µM. Some salts or complexes appear as unconnected parts, following the source record.
What was measured:
[1] = growth inhibition of DIPG glioma cells, dose response, cell-based, SU-DIPG-XIII, MIPE4.0, CellTiter-Glo, qHTS (AID 1347061); settings: SU-DIPG-XIII viability, CellTiter-Glo ATP luminescence;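 note: cells exposed to compound for 48 hours before readout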
[2] = SU-DIPG-XXV glioma cell viability, MIPE5.0 library, qHTS (AID 1347068; cut-off not given, nearly all actives have IC50 up to about 30 µM;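 note: cells exposed to compound for 48 hours before viability readout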)

Compound | AC50 [1] | IC50 [2]
C/C1=C2N=C(/C=C3N=C(/C(C)=C4\[N-][C@@](C)([C@@H]5N=C1[C@](C)(CCC(=O)NC[C@@H](C)OP(=O)([O-])O[C@H]1[C@@H](O)[C@@H](n6cnc7cc(C)c(C)cc76)O[C@@H]1CO)[C@H]5CC(N)=O)[C@@](C)(CC(N)=O)[C@@H]4CCC(N)=O)[C@@](C)(CC(N)=O)[C@@H]\3CCC(N)=O)C(C)(C)[C@@H]/2CCC(N)=O.[C-]#N.[Co+3] | inconclusive: 14.4 µM | 
C/C1=C2/N=C(C(CC(N)=O)C2(C)CCC(=O)NCC(C)OP(=O)([O-])OC2C(CO)OC(n3cnc4cc(C)c(C)cc43)C2O)C2(C)N=C(/C(C)=C3N=C(/C=C4N=C1C(CCC(N)=O)C\4(C)C)C(CCC(N)=O)C/3(C)CC(N)=O)C(CCC(N)=O)C2(C)CC(N)=O.[C-]#N.[Co] (configuration not stated) |  | inconclusive: 11.8 µM

— PubChem BioAssay
